Measured values: patent US20220289816A1, “IMMUNOTHERAPY WITH B*07 RESTRICTED PEPTIDES AND COMBINATION OF PEPTIDES AGAINST CANCERS AND RELATED METHODS” (Immatics Biotechnologies GmbH, priority 2018, published 2022)

Tested on: tumor tissue samples and normal tissue samples (HLA-B*07 positive)
Test: Identification and quantitation of tumor associated peptides presented on the cell surface (HLA immunoprecipitation, label-free LC-MS)
Design: species or system human
Conditions: cancer entities on which the peptide was found presented (abbreviations in table head)

Substance | Peptide Presentation on cancer entities (Table 8a) | Peptide Presentation on cancer entities (Table 8b)
303 (RPPPPCIAL; listed as Homo sapiens) [compound 303] | MEL | 
304 (SPLIGDFPAF; listed as Homo sapiens) [compound 304] | MEL | 
305 (AASPVGSAL; listed as Homo sapiens) [compound 305] | HCC | 
307 (RPHQKGWLSI; listed as Homo sapiens) [compound 307] | HCC | 
308 (RPDVVRTLL; listed as Homo sapiens) [compound 308] | CRC, GBC, GC, HNSCC, MEL, NSCLCadeno, NSCLCsquam, OSCAR, PACA, RCC, UBC | 
311 (APRLALDPDAL; listed as Homo sapiens) [compound 311] | BRCA, SCLC | 
312 (SPSLQSSRESL; listed as Homo sapiens) [compound 312] | UBC | 
313 (VPLSSYVSI; listed as Homo sapiens) [compound 313] | MEL | 
314 (IALMKLAGPL; listed as Homo sapiens) [compound 314] | AML, CRC, HCC, MEL, NHL, NSCLCadeno, UEC | 
316 (NPREPEKSL; listed as Homo sapiens) [compound 316] | BRCA, CRC, GBC, GC, HCC, OSCAR, SCLC | 
317 (MPYNSAHHCVV; listed as Homo sapiens) [compound 317] | CLL, NHL | 
319 (RPLDTFRVL; listed as Homo sapiens) [compound 319] | OSCAR | 
320 (APMHIDRNIL; listed as Homo sapiens) [compound 320] | HCC | 
321 (QPQQPGFFL; listed as Homo sapiens) [compound 321] | CLL | 
322 (RAVPVGSGL; listed as Homo sapiens) [compound 322] | MEL, NSCLCadeno, NSCLCsquam | 
323 (TPHGITDIL; listed as Homo sapiens) [compound 323] | CRC, UEC | 
324 (LPAPLRISL; listed as Homo sapiens) [compound 324] | BRCA, GBM, MEL, NSCLCadeno, OC, UEC | 
325 (SPRSNPVRL; listed as Homo sapiens) [compound 325] | NHL | 
328 (LPLHRGDLVI; listed as Homo sapiens) [compound 328] | CLL | 
329 (QPANFIVLL; listed as Homo sapiens) [compound 329] | GBC | 
331 (SPDSAILKL; listed as Homo sapiens) [compound 331] | NSCLCsquam, UEC | 
332 (SPYAGSTAF; listed as Homo sapiens) [compound 332] | AML, NSCLCadeno | 

Substance | Peptide Presentation on cancer entities (Table 8a) | Peptide Presentation on cancer entities (Table 8b)
333 (SVLPRALSL; listed as Homo sapiens) [compound 333] | BRCA | 
335 (VPPQNPRPSL; listed as Homo sapiens) [compound 335] | AML, GBM, HNSCC, NHL, NSCLCadeno, OSCAR | 
337 (IPTSRVITL; listed as Homo sapiens) [compound 337] | BRCA, CLL, HCC, MEL, NHL, NSCLCadeno, NSCLCsquam, OC, OSCAR, PACA, SCLC | 
338 (MPATPSLKV; listed as Homo sapiens) [compound 338] | HNSCC, OC, PACA, UBC | 
339 (GPQRTTSV; listed as Homo sapiens) [compound 339] | CCC | 
340 (APEPRAALL; listed as Homo sapiens) [compound 340] | MEL, NSCLCsquam, OC | 
343 (RPRPPKVLGL; listed as Homo sapiens) [compound 343] | AML, CCC, HCC, MEL, NSCLCadeno, NSCLCsquam, OC, OSCAR, RCC, SCLC, UEC | 
346 (IPMPRITWL; listed as Homo sapiens) [compound 346] | BRCA | 
349 (QPRDGWPMML; listed as Homo sapiens) [compound 349] | HNSCC, OSCAR | 
350 (RPKSTLMNF; listed as Homo sapiens) [compound 350] | OC, OSCAR | 
351 (SPYADIIPSA; listed as Homo sapiens) [compound 351] | HNSCC | 
352 (LPAFSKIGGIL; listed as Homo sapiens) [compound 352] | CRC, MEL | 
353 (KPRATWTL; listed as Homo sapiens) [compound 353] | AML, BRCA, CCC, CLL, GBC, GC, HCC, HNSCC,MEL, NSCLCadeno, NSCLCsquam, OC, OSCAR, PACA, RCC, SCLC, UEC | 
356 (RPFLRLPSL; listed as Homo sapiens) [compound 356] | CRC, HCC, HNSCC, OC, OSCAR | 
357 (LPPHIFAI; listed as Homo sapiens) [compound 357] | CRC, GC, HCC, UEC | 
358 (APSMLRKNQL; listed as Homo sapiens) [compound 358] | HCC | 
359 (SPRRLVELAGQSL; listed as Homo sapiens) [compound 359] | MEL, OC, OSCAR, UEC | 
361 (SPYGSDRLVQL; listed as Homo sapiens) [compound 361] | CLL, NHL | 
362 (KPMLPPAAF; listed as Homo sapiens) [compound 362] | UEC | 
363 (KPRTPFTTA; listed as Homo sapiens) [compound 363] | UEC | 
364 (KPRTPFTTAQL; listed as Homo sapiens) [compound 364] | BRCA, CRC, GBM, RCC, UEC | 
365 (RPKHFLQML; listed as Homo sapiens) [compound 365] | OSCAR | 

Substance | Peptide Presentation on cancer entities (Table 8a) | Peptide Presentation on cancer entities (Table 8b)
366 (SPTLRQLDL; listed as Homo sapiens) [compound 366] | CCC, HCC | 
368 (NPASRLTAL; listed as Homo sapiens) [compound 368] | BRCA, CCC, CRC, GBC, GBM, GC, HCC, HNSCC, MEL, NHL, NSCLCadeno, NSCLCsquam, OC, OSCAR, PACA, PRCA, RCC, SCLC, UBC, UEC | 
370 (AAHEFGHVL; listed as Homo sapiens) [compound 370] | BRCA, UEC | 
371 (APRSPGQVTPRGL; listed as Homo sapiens) [compound 371] | NSCLCadeno, OC | 
372 (SPSSASLTL; listed as Homo sapiens) [compound 372] | GBC, NSCLCsquam, OSCAR | 
373 (LPKPDLPQLI; listed as Homo sapiens) [compound 373] | AML, BRCA, HCC, MEL, NSCLCadeno, PRCA, RCC, UEC | 
374 (KPRNMTGLDL; listed as Homo sapiens) [compound 374] | CLL | 
375 (LPRGVLEGL; listed as Homo sapiens) [compound 375] | CRC, NSCLCadeno, UEC | 
377 (SPFSKRIKL; listed as Homo sapiens) [compound 377] | AML, BRCA, CLL, GC, HNSCC, MEL, NHL, NSCLCadeno, NSCLCsquam, OC, OSCAR, RCC, SCLC, UBC, UEC | 
379 (GPRQVLFPL; listed as Homo sapiens) [compound 379] | AML, BRCA, CCC, CRC, GBC, GBM, GC, HCC, HNSCC, MEL, NHL, NSCLCadeno, NSCLCsquam, OC, OSCAR, PACA, PRCA, RCC, SCLC, UBC, UEC | 
380 (SPYPGSAAF; listed as Homo sapiens) [compound 380] | BRCA, NSCLCadeno, OSCAR | 
382 (RPGPQRTTSV; listed as Homo sapiens) [compound 382] | BRCA, CCC, CLL, HCC, MEL, NHL, OC, OSCAR, PRCA, SCLC, UEC | 
383 (KPRATWTLKL; listed as Homo sapiens) [compound 383] | BRCA, CCC, CRC, GBC, GC, HCC, HNSCC, MEL, NHL, NSCLCadeno, NSCLCsquam, OC, OSCAR, RCC, SCLC, UEC | 
450 (SAAARALLP; listed as Homo sapiens) [compound 450] |  | CCC, CRC, GBM, GC, HCC, NSCLCother, NSCLCsquam, PACA, SCLC, UEC
454 (SPDPAHLESL; listed as Homo sapiens) [compound 454] |  | NSCLCother
456 (VPVSHPVLTL; listed as Homo sapiens) [compound 456] |  | NSCLCsquam
457 (RPPLSQRHTF; listed as Homo sapiens) [compound 457] |  | NHL
459 (SPAPWRPWI; listed as Homo sapiens) [compound 459] |  | SCLC
460 (APLMPLGKTL; listed as Homo sapiens) [compound 460] |  | PACA
461 (MPHLGPGILL; listed as Homo sapiens) [compound 461] |  | MEL
462 (MPLLADVRL; listed as Homo sapiens) [compound 462] |  | MEL
463 (LPTDLFNSVM; listed as Homo sapiens) [compound 463] |  | MEL
